The record followed here is paper doi:10.1101/2020.01.13.904904.

Chains of the proteins cited; added tags and fusions are not shown.
UniProt P70398: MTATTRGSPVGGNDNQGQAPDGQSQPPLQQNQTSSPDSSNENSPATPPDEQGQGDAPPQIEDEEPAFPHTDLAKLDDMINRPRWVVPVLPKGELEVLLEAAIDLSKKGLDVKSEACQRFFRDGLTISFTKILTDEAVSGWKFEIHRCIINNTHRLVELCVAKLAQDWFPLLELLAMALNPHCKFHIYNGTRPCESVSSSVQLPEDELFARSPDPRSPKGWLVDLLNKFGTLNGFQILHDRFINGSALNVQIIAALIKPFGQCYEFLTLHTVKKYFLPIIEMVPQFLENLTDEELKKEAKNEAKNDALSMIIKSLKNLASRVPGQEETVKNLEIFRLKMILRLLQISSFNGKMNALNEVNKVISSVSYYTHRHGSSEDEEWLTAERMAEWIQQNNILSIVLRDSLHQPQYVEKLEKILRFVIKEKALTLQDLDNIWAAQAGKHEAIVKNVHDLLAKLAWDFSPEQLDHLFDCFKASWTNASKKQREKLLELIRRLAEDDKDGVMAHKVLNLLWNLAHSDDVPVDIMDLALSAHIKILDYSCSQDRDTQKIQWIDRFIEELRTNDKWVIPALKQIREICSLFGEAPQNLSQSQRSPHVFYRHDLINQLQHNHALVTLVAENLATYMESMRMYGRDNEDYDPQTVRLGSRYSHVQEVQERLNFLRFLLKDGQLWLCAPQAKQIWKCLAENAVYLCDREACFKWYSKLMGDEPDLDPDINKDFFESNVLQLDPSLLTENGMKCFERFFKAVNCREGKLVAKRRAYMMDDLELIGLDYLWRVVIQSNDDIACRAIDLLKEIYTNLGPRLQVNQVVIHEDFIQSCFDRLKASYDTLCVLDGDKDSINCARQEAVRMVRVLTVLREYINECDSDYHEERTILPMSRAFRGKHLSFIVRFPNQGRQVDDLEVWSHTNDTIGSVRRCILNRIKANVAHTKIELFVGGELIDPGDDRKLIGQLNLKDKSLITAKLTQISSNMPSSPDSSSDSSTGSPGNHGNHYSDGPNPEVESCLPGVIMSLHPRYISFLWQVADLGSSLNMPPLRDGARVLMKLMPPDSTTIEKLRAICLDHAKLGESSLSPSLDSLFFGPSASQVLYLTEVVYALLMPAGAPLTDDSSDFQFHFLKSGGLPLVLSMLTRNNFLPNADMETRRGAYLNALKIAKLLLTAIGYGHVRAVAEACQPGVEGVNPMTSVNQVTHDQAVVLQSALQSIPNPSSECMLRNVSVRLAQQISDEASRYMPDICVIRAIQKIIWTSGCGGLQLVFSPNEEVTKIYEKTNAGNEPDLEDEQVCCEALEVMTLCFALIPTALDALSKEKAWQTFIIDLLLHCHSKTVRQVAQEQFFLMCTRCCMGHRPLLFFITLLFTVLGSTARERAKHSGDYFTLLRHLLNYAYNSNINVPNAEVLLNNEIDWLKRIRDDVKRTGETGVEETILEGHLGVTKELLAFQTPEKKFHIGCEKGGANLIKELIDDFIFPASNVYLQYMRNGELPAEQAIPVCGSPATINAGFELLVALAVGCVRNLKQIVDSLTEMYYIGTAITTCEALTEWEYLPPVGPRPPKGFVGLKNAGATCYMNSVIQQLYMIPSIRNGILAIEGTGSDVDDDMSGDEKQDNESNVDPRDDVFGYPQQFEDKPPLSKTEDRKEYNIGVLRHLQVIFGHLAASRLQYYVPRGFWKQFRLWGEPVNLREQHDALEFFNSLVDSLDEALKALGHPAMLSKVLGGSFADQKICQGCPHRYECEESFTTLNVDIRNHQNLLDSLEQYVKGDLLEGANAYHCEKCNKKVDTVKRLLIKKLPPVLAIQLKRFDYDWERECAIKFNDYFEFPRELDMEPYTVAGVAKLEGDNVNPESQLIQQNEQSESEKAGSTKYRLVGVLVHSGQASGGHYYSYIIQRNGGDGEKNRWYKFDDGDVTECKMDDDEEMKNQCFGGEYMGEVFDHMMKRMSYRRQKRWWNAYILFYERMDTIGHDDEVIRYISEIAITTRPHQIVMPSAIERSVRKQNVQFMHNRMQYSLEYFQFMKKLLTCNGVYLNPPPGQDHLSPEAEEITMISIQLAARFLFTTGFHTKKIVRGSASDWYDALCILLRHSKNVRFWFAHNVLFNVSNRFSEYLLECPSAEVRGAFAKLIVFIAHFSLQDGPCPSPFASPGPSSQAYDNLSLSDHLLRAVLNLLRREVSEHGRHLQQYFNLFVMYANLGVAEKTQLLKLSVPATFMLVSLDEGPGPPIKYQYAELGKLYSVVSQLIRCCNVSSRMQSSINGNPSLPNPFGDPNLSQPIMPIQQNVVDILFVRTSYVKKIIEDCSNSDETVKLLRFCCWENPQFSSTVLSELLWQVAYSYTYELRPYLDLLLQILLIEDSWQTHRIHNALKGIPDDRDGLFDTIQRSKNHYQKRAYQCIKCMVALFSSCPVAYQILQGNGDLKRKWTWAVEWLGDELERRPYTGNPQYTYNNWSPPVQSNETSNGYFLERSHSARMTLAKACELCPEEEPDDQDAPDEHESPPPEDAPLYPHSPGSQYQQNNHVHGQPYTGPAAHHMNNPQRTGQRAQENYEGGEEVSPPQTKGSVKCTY
UniProt P83917: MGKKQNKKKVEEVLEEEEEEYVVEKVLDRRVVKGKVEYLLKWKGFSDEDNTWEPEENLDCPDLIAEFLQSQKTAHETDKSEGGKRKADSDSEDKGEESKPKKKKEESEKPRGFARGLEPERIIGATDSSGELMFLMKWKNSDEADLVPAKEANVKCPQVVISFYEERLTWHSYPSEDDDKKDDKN
UniProt Q8BX22: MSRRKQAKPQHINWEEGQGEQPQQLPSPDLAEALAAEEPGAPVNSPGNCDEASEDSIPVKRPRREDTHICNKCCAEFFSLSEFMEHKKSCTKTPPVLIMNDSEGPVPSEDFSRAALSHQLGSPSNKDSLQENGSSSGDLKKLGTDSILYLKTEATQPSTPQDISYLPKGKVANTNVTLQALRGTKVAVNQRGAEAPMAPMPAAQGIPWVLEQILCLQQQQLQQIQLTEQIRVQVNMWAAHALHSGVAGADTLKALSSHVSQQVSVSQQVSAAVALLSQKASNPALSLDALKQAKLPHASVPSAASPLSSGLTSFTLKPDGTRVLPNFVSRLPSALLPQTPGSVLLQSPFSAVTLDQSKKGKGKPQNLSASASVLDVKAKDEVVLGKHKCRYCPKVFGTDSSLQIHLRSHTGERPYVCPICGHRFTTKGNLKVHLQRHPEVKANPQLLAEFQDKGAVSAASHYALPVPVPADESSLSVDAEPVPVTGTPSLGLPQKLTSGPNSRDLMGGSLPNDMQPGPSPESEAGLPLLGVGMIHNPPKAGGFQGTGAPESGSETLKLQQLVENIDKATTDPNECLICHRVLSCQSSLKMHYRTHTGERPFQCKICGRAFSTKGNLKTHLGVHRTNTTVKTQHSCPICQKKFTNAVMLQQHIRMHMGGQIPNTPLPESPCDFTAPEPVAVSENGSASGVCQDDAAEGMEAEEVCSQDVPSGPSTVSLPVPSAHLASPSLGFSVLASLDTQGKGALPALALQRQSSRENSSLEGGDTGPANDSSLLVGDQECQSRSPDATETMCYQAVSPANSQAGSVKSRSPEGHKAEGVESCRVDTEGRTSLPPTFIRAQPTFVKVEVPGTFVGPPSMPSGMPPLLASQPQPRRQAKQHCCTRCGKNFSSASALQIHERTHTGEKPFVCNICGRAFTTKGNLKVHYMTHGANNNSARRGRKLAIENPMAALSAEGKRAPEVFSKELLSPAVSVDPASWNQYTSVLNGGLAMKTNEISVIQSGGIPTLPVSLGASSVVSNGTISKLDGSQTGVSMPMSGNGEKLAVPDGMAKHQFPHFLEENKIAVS
UniProt Q3URU2: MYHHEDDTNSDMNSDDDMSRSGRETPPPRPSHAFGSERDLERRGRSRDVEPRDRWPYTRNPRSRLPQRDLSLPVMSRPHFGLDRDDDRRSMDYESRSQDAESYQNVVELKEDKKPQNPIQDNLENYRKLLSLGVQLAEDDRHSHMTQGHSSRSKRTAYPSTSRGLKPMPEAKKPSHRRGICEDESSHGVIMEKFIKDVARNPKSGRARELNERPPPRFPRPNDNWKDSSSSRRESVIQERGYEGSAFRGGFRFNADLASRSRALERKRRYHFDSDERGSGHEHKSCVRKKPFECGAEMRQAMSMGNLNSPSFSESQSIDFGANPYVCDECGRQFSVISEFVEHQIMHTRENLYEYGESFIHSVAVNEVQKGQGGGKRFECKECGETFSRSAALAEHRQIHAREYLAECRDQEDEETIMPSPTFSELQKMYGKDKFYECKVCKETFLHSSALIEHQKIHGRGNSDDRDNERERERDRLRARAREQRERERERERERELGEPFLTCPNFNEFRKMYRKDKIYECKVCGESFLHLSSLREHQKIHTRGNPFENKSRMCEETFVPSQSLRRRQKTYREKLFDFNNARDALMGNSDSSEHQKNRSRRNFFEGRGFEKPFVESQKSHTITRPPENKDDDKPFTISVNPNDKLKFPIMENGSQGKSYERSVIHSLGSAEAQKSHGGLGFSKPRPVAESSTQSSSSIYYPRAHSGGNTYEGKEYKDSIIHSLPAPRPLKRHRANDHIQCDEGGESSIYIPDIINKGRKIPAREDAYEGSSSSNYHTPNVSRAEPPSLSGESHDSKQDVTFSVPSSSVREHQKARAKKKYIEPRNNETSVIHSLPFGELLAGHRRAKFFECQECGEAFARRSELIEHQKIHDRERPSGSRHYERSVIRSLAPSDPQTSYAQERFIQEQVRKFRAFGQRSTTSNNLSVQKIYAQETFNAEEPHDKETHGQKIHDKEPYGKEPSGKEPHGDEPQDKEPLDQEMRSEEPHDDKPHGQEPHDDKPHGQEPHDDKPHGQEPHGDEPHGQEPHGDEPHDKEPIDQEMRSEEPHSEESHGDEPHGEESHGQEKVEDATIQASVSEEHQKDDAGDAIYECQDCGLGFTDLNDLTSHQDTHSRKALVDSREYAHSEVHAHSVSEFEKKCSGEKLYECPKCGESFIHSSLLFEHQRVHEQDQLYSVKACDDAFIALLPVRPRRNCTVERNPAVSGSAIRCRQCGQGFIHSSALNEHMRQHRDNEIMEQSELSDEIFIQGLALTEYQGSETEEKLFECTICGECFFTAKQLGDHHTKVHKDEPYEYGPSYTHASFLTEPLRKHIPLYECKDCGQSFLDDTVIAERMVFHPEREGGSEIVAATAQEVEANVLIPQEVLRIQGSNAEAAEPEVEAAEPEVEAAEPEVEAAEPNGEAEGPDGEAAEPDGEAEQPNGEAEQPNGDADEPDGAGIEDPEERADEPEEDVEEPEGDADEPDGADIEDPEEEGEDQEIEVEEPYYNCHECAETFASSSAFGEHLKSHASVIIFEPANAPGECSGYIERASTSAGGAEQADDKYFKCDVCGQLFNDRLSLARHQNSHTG

The target of assay [1] is Deubiquitinase USP9X (mouse (endogenous in ESC)) (UniProt P70398). Kind of assay: affinity purification with mass spectrometry.
Assay [2] has as its target T1, ESRRB (mouse (endogenous in ESC)) (UniProt Q61539).
T1 sequence: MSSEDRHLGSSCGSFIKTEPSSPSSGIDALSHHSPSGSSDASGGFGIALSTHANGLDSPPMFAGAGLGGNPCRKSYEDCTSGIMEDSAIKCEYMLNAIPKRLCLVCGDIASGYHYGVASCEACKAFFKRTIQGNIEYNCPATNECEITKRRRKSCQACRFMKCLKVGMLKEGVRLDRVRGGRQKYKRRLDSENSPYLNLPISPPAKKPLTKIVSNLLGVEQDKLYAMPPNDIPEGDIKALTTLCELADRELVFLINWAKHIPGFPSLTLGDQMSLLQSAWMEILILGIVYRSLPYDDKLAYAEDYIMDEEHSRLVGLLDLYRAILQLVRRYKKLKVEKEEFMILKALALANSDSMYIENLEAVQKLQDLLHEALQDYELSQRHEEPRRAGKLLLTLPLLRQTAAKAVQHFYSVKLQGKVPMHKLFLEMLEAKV
Put plainly: affinity purification with mass spectrometry.

These are yes or no findings as the source states them, for the method shown. In cells and extracts the contact can be indirect. Here binding means that the protein was enriched with, or labelled near, the bait; the list need not be complete.

As to “chromatin factor CBX1 (from UniProt P83917 1-185)”, the binding result in assay [1] is reported as “binds”.
Turning to “pluripotency transcription factor SALL4 (from UniProt Q8BX22 1-1067)”, the binding result in assay [1] is “binds”.
With “Gag protein PEG3 (from UniProt Q3URU2 1-1571)”, the binding entry in assay [1] is listed as “binds”.
“Deubiquitinase USP9X (from UniProt P70398 1-2559) (enzyme)”: the binding entry in assay [2] is on record as “binds”.

B1: Gag protein PEG10 (protein, UniProt Q7TN75 1-958)
chain: MAAAGGSSNCPPPPPPPPPNNNNNNNTPKSPGVPDAEDDDERRHDELPEDINNFDEDMNRQFENMNLLDQVELLAQSYSLLDHLDDFDDDDEDDDFDPEPDQDELPEYSDDDDLELQGAAAAPIPNFFSDDDCLEDLPEKFDGNPDMLGPFMYQCQLFMEKSTRDFSVDRIRVCFVTSMLIGRAARWATAKLQRCTYLMHNYTAFMMELKHVFEDPQRREAAKRKIRRLRQGPGPVVDYSNAFQMIAQDLDWTEPALMDQFQEGLNPDIRAELSRQEAPKTLAALITACIHIERRLARDAAAKPDPSPRALVMPPNSQTDPTEPVGGARMRLSKEEKERRRKMNLCLYCGNGGHFADTCPAKASKNSPPGKLPGPAVGGPSATGPERIRSPPSEASTQHLQVMLQIHMPGRPTLFVRAMIDSGASGNFIDQDFVIQNAIPLRIKDWPVMVEAIDGHPIASGPIILETHHLIVDLGDHREILSFDVTQSPFFPIVLGIRWLSTHDPHITWSTRSIVFNSDYCRLRCRMFAQIPSNLLFTVPQPNLHPYLLHHVHPHVHPHMHQHLHQHLHQFLHPDPHQYPHPDPHYHHHQQADMQHQLQQYLYQYLYYHLYPVMHHHLPPDQHEHLHEYLHQYLHQYLHQFLHHHLHPDLHQYLYQYLHNHMNPDPHHHPHPDPPQDPHHPPHQDPHQHPDPHQDPPHQDPHQDAHQDPHMDPHLHQHQHPQPQPHPQQHPNHPQQPPFFYHMAGFRIYHPVRYYYIQNVYTPVDEHVYPGHRVVDPNIEMIPGAHSLPSGHLYSMSESEMNALRNFVDRNVKDGLMTPTVAPNGAQVLQVKRGWKLQVTYNCRAPQSGTIQNQYLRMSLPNMGDPAHLASYGEFVQVPGYPYPAYVYYTSPHMMTAWYPVGRDVHGRIIVVPVVITWSQNTNRQPPVPQYPPPQPPPPPPPPPPPPPPPPASSCSAA
Regarding B1, the binding entry in assay [1] is on record as “binds”.
